Protein sequences, listed by entry. Tags and fused reporters are not part of them.
UniProt P53350, whole entry, looked up: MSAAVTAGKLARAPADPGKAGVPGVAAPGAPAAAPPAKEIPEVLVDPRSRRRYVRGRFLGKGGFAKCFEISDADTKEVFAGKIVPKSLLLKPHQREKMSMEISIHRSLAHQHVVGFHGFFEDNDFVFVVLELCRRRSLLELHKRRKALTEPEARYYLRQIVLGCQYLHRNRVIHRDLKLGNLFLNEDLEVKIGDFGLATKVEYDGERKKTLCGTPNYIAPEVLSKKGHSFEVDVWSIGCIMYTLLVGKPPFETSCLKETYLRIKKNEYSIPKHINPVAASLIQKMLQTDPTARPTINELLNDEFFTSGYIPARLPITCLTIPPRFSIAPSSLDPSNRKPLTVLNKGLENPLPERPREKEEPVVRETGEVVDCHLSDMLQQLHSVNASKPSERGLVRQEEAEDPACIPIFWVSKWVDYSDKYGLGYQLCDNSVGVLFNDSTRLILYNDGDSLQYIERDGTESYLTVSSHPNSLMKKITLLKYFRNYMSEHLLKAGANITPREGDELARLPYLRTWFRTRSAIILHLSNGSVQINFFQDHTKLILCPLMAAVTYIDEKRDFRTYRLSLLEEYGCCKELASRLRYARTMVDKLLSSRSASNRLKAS

Where “and” joins values, the source holds several entries; their conditions need not be identical. Identical values can stand only once. Screen size: about 360,000 compounds; about 10,000 (2.8%) were called active. Inconclusive results, whose numbers are uncertain, are shown with a selection of clear calls. Calls follow the shape of the dose curve; as a rule, active = well fitted inhibition curve with a large enough effect; inconclusive = small, poorly fitted or top-dose-only effect; inactive = flat fitted curve, though single readings scatter. Potencies beside an inconclusive call are fits to weak or partial responses and may not hold up.
The compounds below were run against Serine/threonine-protein kinase PLK1 (Homo sapiens) (UniProt P53350) (assay: qHTS for Inhibitors of PLK1-PDB (polo-like kinase 1 - polo-box domain): Primary Screen). Conditions: Plk1 PBD binding of FITC phosphopeptide, fluorescence polarization.
In the case of CCn1nnnc1SCC(=O)c1cccc(OC)c1, the Potency is reported as inconclusive: 26.7 µM [inhibitor, partial curve]. In the case of O=[N+]([O-])c1ccc(Cn2cc(-c3cccc(C(F)(F)F)c3)nn2)cc1, the max response, negative = inhibition is reported as inactive: -13.9%. For O=C(CCS(=O)(=O)c1ccccc1)Nc1ccc(N2CCN(Cc3ccccc3)CC2)cc1, the Potency was inconclusive: 33.6 µM [inhibitor, partial curve]. For COc1ccc(OCc2nn3c(Cn4cnc5ccccc54)nnc3s2)cc1, the Potency was active: 15 µM. With COc1ccc2cc([C@H](C)C(=O)N(C)Cc3ccccc3N3CCCC3)ccc2c1 the max response, negative = inhibition was inactive: -8.2%. For CN(CC(=O)Nc1ccc(Cl)c(C(F)(F)F)c1)C(=O)CNC(=O)C1CCCCC1, the max response, negative = inhibition was inactive: -14.7%. In the case of COC1=C(C)C(=O)C2=C(C1=O)C1C3CC4=C(C(=O)C(OC)=C(C)C4=O)C(CNC(=O)C(C)=O)N3C(C#N)C(C2)N1C (stereo not given), the Potency is reported as inconclusive: 26.7 µM [inhibitor, single point]. In the case of S=c1[nH]nc(-c2ccccn2)n1/N=C/c1ccc(Br)s1, the Potency is reported as inconclusive: 10.6 µM [inhibitor, partial curve]. In the case of CC(=O)c1ccc(OCC(O)CN2CCN(Cc3ccc4c(c3)OCO4)CC2)cc1 (stereo not given), the Potency is reported as active: 21.2 µM and active: 26.7 µM. O=C(c1ccccc1)c1ccccc1N1C(=O)C=CC1=O was tested, and the Potency was active: 3.36 µM. O=C(NCc1ccccc1)C(c1ccc(-c2ccccc2)cc1)n1c(=O)c(-c2ccco2)nc2ccccc21 (stereo not given) was tested, and the Potency was inconclusive: 21.2 µM [inhibitor, partial curve]. In the case of CCCCn1c(N)c(N(CC(C)C)C(=O)CSc2ccc3c(c2)OCCO3)c(=O)[nH]c1=O, the Potency is reported as inconclusive: 26.7 µM [inhibitor, partial curve]. With COc1ccc(CCc2nnc(NS(C)(=O)=O)s2)cc1 the Potency was inconclusive: 26.7 µM [inhibitor, partial curve]. In the case of Cc1[nH]c2ccccc2c1/C=N/NC(=O)CCC(=O)Nc1ccccc1, the Potency is reported as active: 23.8 µM. In the case of C/C(=N\Nc1nc2c(s1)CCCC2)c1ccc(Cl)cc1, the Potency is reported as inconclusive: 29.9 µM [inhibitor, partial curve]. In the case of CC(Cc1cccs1)NC(=O)Nc1ccc([N+](=O)[O-])cc1 (stereo not given), the max response, negative = inhibition is reported as inactive: -11%. With c1ccc2oc(-c3[nH]ncc3CN3CCC(N4CCSCC4)CC3)cc2c1 the Potency was inconclusive: 42.3 µM [inhibitor, partial curve]. With COc1ccc(Cl)cc1-n1c(=S)sc2c(=O)[nH]c(SCC(=O)C(C)(C)C)nc21 the Potency was inconclusive: 29.9 µM [inhibitor, single point]. With COc1ccc(C/C(C)=N/NS(=O)(=O)c2ccc(Br)cc2)cc1 the Potency was inconclusive: 26.7 µM [inhibitor, single point]. COc1ccc(/C=C2/C(=O)N(Cc3ccccc3)N=C2C)cc1 was tested, and the Potency was inconclusive: 3.36 µM [inhibitor, full curve]. In the case of COc1ccc(OC)c(Nc2c3c(nc4ccccc24)CCC3)c1, the max response, negative = inhibition is reported as inactive: -4.03%. For COC(=O)c1ccc(C)c(NC(=O)CSc2sc3c(O)cc(=O)[nH]c3c2C#N)c1, the Potency was inconclusive: 13.4 µM [inhibitor, partial curve]. With Cc1ccc(C(=O)OCC(=O)Nc2ccccc2Cl)c(O)c1 the Potency was active: 9.47 µM. With CCOC(=O)c1sc2nc(C)n(N)c(=O)c2c1C the max response, negative = inhibition was inactive: 3.56%. For c1ccc(NC2=NCCN2CC2CCCCCC2)cc1, the max response, negative = inhibition was inactive: -1.38%. Nn1c(SCC(=O)Nc2nccs2)nnc1C1CC1 was tested, and the Potency was inconclusive: 26.7 µM [inhibitor, partial curve]. For COc1ccc(NC(=O)CSc2nc3nc(-c4cccs4)cc(C(F)(F)F)c3c(=O)[nH]2)c(OC)c1, the Potency was active: 26.7 µM. COc1ccc(N2CC(C(=O)N[C@@H](C)C(=O)NC3CCCC3)CC2=O)cc1 (stereo not given in full) was tested, and the max response, negative = inhibition was inactive: -10.5%. NS(=O)(=O)c1cccc(NC(=O)COC(=O)CCSc2ccccc2)c1 was tested, and the Potency was inconclusive: 9.47 µM [inhibitor, partial curve, poor fit]. With NS(=O)(=O)c1ccc(NC(=S)N2CCN(c3ccccc3)CC2)cc1 the Potency was inconclusive: 18.9 µM [inhibitor, partial curve, poor fit]. CN1CC=C2C(C#N)=C(N)C(C#N)(C#N)[C@H](c3cccc(Cl)c3)C2C1 (stereo not given in full) was tested, and the Potency was inconclusive: 21.2 µM [inhibitor, partial curve]. CNc1nc(-c2c[nH]c3ccccc23)cs1 was tested, and the Potency was inconclusive: 21.2 µM [inhibitor, partial curve]. For COc1ccc(C(c2c(C)[nH]n(C(N)=S)c2=O)C(C#N)C#N)cc1 (stereo not given), the Potency was active: 21.2 µM. For Cc1c(CCC(=O)O)c(=O)oc2c(C)c(OCc3cc4c(cc3Cl)OCO4)ccc12, the Potency was inconclusive: 33.6 µM [inhibitor, single point]. With O=C(c1ccc(Cn2c(=S)[nH]c3ccccc3c2=O)cc1)N1CCN(c2ccccn2)CC1 the max response, negative = inhibition was inactive: -1.21%. For N#Cc1cccc(S(=O)(=O)N2CCN(c3ccnc4cc(Cl)ccc34)CC2)c1, the Potency was inconclusive: 59.7 µM [inhibitor, partial curve]. With CCOC(=O)C1=CCN(S(=O)(=O)c2ccc(C)cc2)C1c1cccc(C)c1 (stereo not given) the max response, negative = inhibition was inactive: 2.81%. In the case of Cc1ccccc1Cn1c(C(=O)OC(C)C)cc2c1ccn2C, the max response, negative = inhibition is reported as inactive: 0.638%. In the case of Cc1ccccc1C(=O)NC(=S)Nc1sc2c(c1C#N)CCCC2, the Potency is reported as inconclusive: 3.77 µM [inhibitor, full curve]. With O=S(=O)(NCC1COc2ccccc2O1)c1ccc2ccccc2c1 (stereo not given) the max response, negative = inhibition was inconclusive: -35.5% [inhibitor]. For Cc1cccc(/C=C2/S/C(=N/N=C3\CC4CCC3(C)C4(C)C)NC2=O)c1 (stereo not given), the Potency was inconclusive: 23.8 µM [inhibitor, partial curve]. For CCCOc1ccc(C2NC(=S)NC(C)=C2C(=O)c2ccccc2)cc1OC (stereo not given), the Potency was inconclusive: 42.3 µM [inhibitor, partial curve]. For O=C(c1ccccc1Oc1ccccc1)N1CCN(c2ccccc2)CC1, the Potency was inconclusive: 23.8 µM [inhibitor, partial curve]. With CCOn1c(=O)c(-c2ccc(F)cc2)[n+]([O-])c2ccccc21 the max response, negative = inhibition was inactive: 4.21%. In the case of O=C(CSC1=NCCS1)Nc1nc2c(s1)CCCC2, the Potency is reported as inconclusive: 26.7 µM [inhibitor, single point]. With CCC(C)NC(=O)CN1C(=O)NC2NC(=O)NC21 (stereo not given) the Potency was inconclusive: 29.9 µM [inhibitor, partial curve]. With CSc1nc2ccccc2n1C(=O)NC1CCCCC1 the Potency was inconclusive: 26.7 µM [inhibitor, single point]. For CC(=O)N1CCc2c(sc(NC(=O)CS(=O)(=O)c3ccc(F)cc3)c2C(N)=O)C1, the Potency was inconclusive: 18.9 µM [inhibitor, partial curve]. For O=C(O)/C(=C\c1ccc(-c2ccccc2[N+](=O)[O-])o1)c1ccccc1, the Potency was active: 37.7 µM. For NC(=O)c1ccc(Oc2ccc3c(c2)CCC3)c([N+](=O)[O-])c1, the Potency was inconclusive: 23.8 µM [inhibitor, single point]. With CC(=O)Nc1ccc(C(=O)Nc2nc(-c3cc(C)n(Cc4ccccc4)c3C)cs2)cc1 the Potency was inconclusive: 67 µM [inhibitor, partial curve]. For O=C(Nc1nnc(SCc2ccccc2Cl)s1)c1cccc([N+](=O)[O-])c1, the Potency was inconclusive: 18.9 µM [inhibitor, partial curve]. CCOc1cc(C2NN=C(c3ccccc3)S2)ccc1OCc1ccc(F)cc1 (stereo not given) was tested, and the Potency was inconclusive: 26.7 µM [inhibitor, single point]. For COc1cccc(SCC2CSc3nc4ccccc4c(=O)n32)c1 (stereo not given), the Potency was inconclusive: 16.8 µM [inhibitor, partial curve]. In the case of CCCC(=O)NC(=S)Nc1ccc(NC(=O)C(C)C)c(OC)c1, the Potency is reported as inconclusive: 6.7 µM [inhibitor, single point]. In the case of O=C(Cc1ccc(F)cc1)Nc1ccc2[nH]ncc2c1, the max response, negative = inhibition is reported as inactive: -4.73%. For COc1cccc(-n2nnnc2SCC(=O)Nc2ccc(C(C)=O)cc2)c1, the Potency was active: 23.8 µM. For O=c1c(O)c(-c2cccs2)oc2ccccc12, the max response, negative = inhibition was inactive: -19.6%. Cc1nc(SCC(=O)NCCc2ccccc2)n[nH]1 was tested, and the Potency was active: 3.77 µM. In the case of COc1ccc(CCN(Cc2cc3ccc(C)cc3n3nnnc23)C(C)=O)cc1OC, the Potency is reported as active: 3.36 µM. Cc1ccc(C(=O)NCC(=O)OCC(=O)Nc2ccccc2[N+](=O)[O-])cc1 was tested, and the Potency was inconclusive: 26.7 µM [inhibitor, partial curve]. Cc1ccc(S(=O)(=O)NC(=O)C2(C)CCN2C(=O)c2cccc(F)c2)nc1 (stereo not given) was tested, and the max response, negative = inhibition was inactive: -9.34%. COc1ccc(/C=C2/Sc3ccc(C(=O)N4CCOCC4)cc3NC2=O)cc1OC was tested, and the Potency was active: 26.7 µM. For C=CCn1c(O)c(C2=c3ccccc3=NC2=O)c2ccccc21, the Potency was active: 16.8 µM. In the case of O=C(c1ccc2c3c(cccc13)CC2)C1CCCN(C(=O)c2ccc(=O)[nH]c2)C1 (stereo not given), the max response, negative = inhibition is reported as inactive: -22.2%. For O=C(O)c1cccc(CSc2nc(-c3ccc(Cl)cc3)cc(C(F)(F)F)n2)c1, the Potency was active: 26.7 µM. In the case of O=C(CCS(=O)(=O)c1ccc(F)cc1)Nc1nccs1, the max response, negative = inhibition is reported as inactive: -9.57%. With Cc1ccc(N=Nc2c(N)[nH]n3c(=O)cc(-c4ccccc4)nc23)cc1 the Potency was inconclusive: 26.7 µM [inhibitor, partial curve]. O=C(NNC(=O)C1CCC1)c1ccc(Cl)cc1 was tested, and the max response, negative = inhibition was inactive: -15.5%. COc1ccc(C(CC(=O)N2CCCCC2)c2c(OC)cc(OC)c3c(-c4ccccc4)cc(=O)oc23)cc1 (stereo not given) was tested, and the Potency was inconclusive: 21.2 µM [inhibitor, partial curve].

— PubChem BioAssay AID720504 (National Center for Advancing Translational Sciences (NCATS), 2013)
% is scaled to controls: 0 for no effect and ±100 for the full control effect; potency is read from the fitted curve at half-maximal effect.
Also: nearly all actives have a fitted effect of over 65% in size.
For max response, negative = inhibition in this document: series mostly up to about 57 µM.
